# Measurements as given in paper PMC11360180, “Enhancement of Antimicrobial Function by L/D-Lysine Substitution on a Novel Broad-Spectrum Antimicrobial Peptide, Phylloseptin-TO2: A Structure-Related Activity Research Study” (Pharmaceutics, 2024).
# How the values were obtained:
# Gram-negative = assay: GM MIC and therapeutic index
# Yeast = settings: HC10 / GM MIC
# Gram-positive = assay: GM MIC and therapeutic index
Compound,TI Value under HC10 (G−) (Gram-negative),TI Value under HC10 (Yeast) (Yeast),TI Value under HC10 (G+) (Gram-positive)
CC[C@H](C)[C@H](NC(=O)[C@H](C)NC(=O)[C@@H](CCCCN)NC(=O)[C@@H]1CCCN1C(=O)[C@@H](NC(=O)[C@H](CC(C)C)NC(=O)[C@H](CO)NC(=O)[C@H](CC(C)C)NC(=O)[C@@H](N)Cc1ccccc1)[C@@H](C)CC)C(=O)N[C@@H](CCCCN)C(=O)N[C@@H](C)C(=O)N[C@H](C(=O)N[C@@H](CCCCN)C(=O)N[C@@H](C)C(=O)N[C@@H](CC(C)C)C(=O)N[C@@H](C)C(=O)N[C@@H](CCCCN)C(=O)N[C@H](CCCCN)C(=O)N[C@@H](CC(C)C)C(N)=O)C(C)C [SR2D10] (H-FLSLIP[dK]AIKAVKALAK[dK]L-NH2),9.41,1.18,75.24
CC[C@H](C)[C@H](NC(=O)[C@H](C)NC(=O)[C@@H](CCCCN)NC(=O)[C@@H]1CCCN1C(=O)[C@@H](NC(=O)[C@H](CC(C)C)NC(=O)[C@H](CO)NC(=O)[C@H](CC(C)C)NC(=O)[C@@H](N)Cc1ccccc1)[C@@H](C)CC)C(=O)N[C@@H](CCCCN)C(=O)N[C@@H](C)C(=O)N[C@H](C(=O)N[C@@H](CO)C(=O)N[C@@H](C)C(=O)N[C@@H](CC(C)C)C(=O)N[C@@H](C)C(=O)N[C@@H](CCCCN)C(=O)N[C@@H](CCCCN)C(=O)N[C@@H](CC(C)C)C(N)=O)C(C)C [SRD7] (H-FLSLIP[dK]AIKAVSALAKKL-NH2),11.16,2.34,74.78
"FLSLIPHAISAVSALAKHL-NH2 [PSTO2, phylloseptin-TO2]",0.17,–,5.45
FLSLIPKAIKAVKALAKKL-NH2 [SR2],1.92,0.2,3.27
FLSLIPKAIKAVSALAKKL-NH2 [SR],3.15,–,6.3
FLSLIPKAISAVSALAKHL-NH2 [Peptide 7K],0.69,–,5.49
FLSLIPKAISAVSALAKKL-NH2 [Peptide 18K],1.29,–,7.35

# Where a SMILES comes first, the peptide text is derived from it. Where no end group is shown, it is not given here. [ ]: non-standard residue; d: D form.
